Laboratory results reported in PubChem BioAssay AID2685 (National Center for Advancing Translational Sciences (NCATS), 2010).
The other results are listed elsewhere or left out. Further columns of the screen follow, without active or inactive calls. Most of these compounds were active or inconclusive in the main read-out, so they are no random draw. Potencies come from curve fits of mixed quality, noted in brackets.

Experiment: qHTS Assay for Lipid Storage Modulators in Drosophila S3 Cells;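 for cell number change: cells counted by Cell Tracker Red CMTPX staining in the red channel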
Conditions: BODIPY lipid droplet fluorescence, 18-24 h; for cell number change: measured here: cell count max response, cells fed with added oleic acid
Summary of the method: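 Drosophila S3 cells got compounds at several concentrations plus oleic acid (400 uM solution). Laser-scanning cytometry with 488 nm excitation read lipid droplets at 500-530 nm and cells at 575-640 nm. Percent activity was relative to 20 uM Triacsin C.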

[1] = measured here: lipid fluorescence (Fed channel) AC50, cells fed with added oleic acid
[2] = measured here: cell number channel AC50, cells fed with added oleic acid

Row | Compound | cell number change [%] | AC50 [1] | AC50 [2]
1 | Oc1ccc(/C=N/n2c(COc3ccccc3)n[nH]c2=S)cc1O | 12.5 |  | 
2 | C=CCC(C(=O)OC)(C(=O)OC)c1ccccc1[N+](=O)[O-] | 3.08 | 2.91 µM [rising, single point] | 
3 | Cc1cccc(-c2cc3nc(C)cc(NCCCN(C)C)n3n2)c1 |  | 0.411 µM [rising, single point] | 
4 | O=c1n(-c2ccccc2)c(=O)n2n1CCC2 | 20.6 | 0.13 µM [falling, full curve, poor fit] | 
5 | O=C(CSc1nnc2sc3ccccc3n12)NCc1ccco1 | 23.6 | 6.51 µM [rising, single point] | 6.51 µM [rising, single point]
6 | Cc1ccc(C2CC(=O)c3cnc(NC(=O)c4ccco4)nc3C2)cc1 (stereo unspecified) | 33.5 |  | 7.31 µM [rising, partial curve]
7 | CC(=O)N1CCN(c2ccc(NC(=O)C(c3ccccc3)c3ccccc3)cc2)CC1 | -28 | 16.4 µM [falling, partial curve] | 
8 | O=C(NCC1CCOCC1)c1ccc2nc(Cc3cccc(Cl)c3)oc2c1 | 8.65 | 18.4 µM [rising, single point] | 
9 | FC(F)c1nnc2ccc(Cl)nn12 | 7.18 |  | 
10 | CCCCNc1ccc(C(CC(N)=O)NC(=O)c2ccccc2)cc1[N+](=O)[O-] (stereo unspecified) | 11.3 | 6.51 µM [rising, partial curve] | 
11 | COc1ccc(N(C(=O)c2ccco2)C(C(=O)NC2CCCC2)c2ccc(C)cc2)c(OC)c1 (stereo unspecified) | 21.8 | 0.116 µM [rising, full curve, poor fit] | 
12 | O=c1[nH]c(Nc2ccc3c(c2)OCCO3)nnc1Cc1ccc(Cl)cc1 | 3.01 |  | 
13 | O=C(Nc1nnc(-c2ccccc2)o1)C1CCCCC1 | 2.08 | 6.51 µM [falling, single point] | 0.731 µM [falling, full curve]
14 | O=C(NNc1ccccn1)C(c1ccccc1)c1ccccc1 | -35.9 | 1.84 µM [falling, partial curve] | 0.731 µM [rising, partial curve, poor fit]
15 | Cc1nnc(SCC(=O)Nc2ccc(N(C)C)cc2)n(N)c1=O | 22.6 |  | 0.00517 µM [rising, full curve, poor fit]
16 | S=C(N/N=C/c1ccc2ncccc2c1)Nc1ccccc1 |  |  | 0.461 µM [rising, full curve]
17 | COc1cc(CNc2ccc(N3CCCC3)cc2)cc(Cl)c1OC | -53.4 | 20.6 µM [falling, partial curve, poor fit] | 32.6 µM [falling, single point]
18 | O=C(NNS(=O)(=O)c1ccc(F)cc1)C1CCCCC1 | 2.52 | 0.206 µM [falling, single point] | 
19 | CCC/C=N/NC(=O)c1cccc(Br)c1 | -12.1 | 0.0058 µM [falling, full curve, poor fit] | 0.0058 µM [falling, full curve, poor fit]
20 | CCNC(=O)C12CCC(C)(C(=O)C1Br)C2(C)C (stereo unspecified) | -14.9 | 3.66 µM [falling, single point] | 
21 | CCOC(=O)N1CCN(c2nc(-c3ccc(F)cc3)cs2)CC1 | 129 | 18.4 µM [rising, partial curve] | 16.4 µM [rising, partial curve]
22 | O=C1O/C(=C/c2ccccc2)c2ccccc21 | 28.7 | 1.16 µM [rising, full curve] | 
23 | CC(=O)c1c(OC(=O)c2ccccc2)ccnc1C(F)(F)F | 6.12 |  | 
24 | Oc1ccc(CNc2ccccc2)c2cccnc12 | -21 | 0.00461 µM [falling, full curve, poor fit] | 
25 | CCOC(=O)CSc1nnc(N)s1 | 1.14 | 16.4 µM [falling, single point] | 
26 | COc1ccc(N2CC(O)=C(c3nc(-c4ccc(Cl)cc4)cs3)C2=N)cc1 | -23.5 | 29.1 µM [falling, single point] | 
27 | O=C(Nc1ccc(F)cc1)Nc1nnc(-c2ccccc2)o1 | 24.8 | 29.1 µM [rising, single point] | 
28 | O=C(Cc1n[nH]c(=O)c2ccccc12)Nc1cccc(S(=O)(=O)N2CCCC2)c1 | 9.47 | 29.1 µM [rising, single point] | 
29 | COc1ccc(NC(=O)c2cncn2-c2ccccc2)cc1 | 5.83 | 0.206 µM [falling, partial curve] | 
30 | Fc1ccc(C(CCCn2nnc(-c3cccnc3)n2)c2ccc(F)cc2)cc1 | -40.5 | 16.4 µM [falling, partial curve] | 14.6 µM [falling, partial curve, poor fit]

Arranged by formula weight (smallest number first): part of the list above
Row | Compound | cell number change [%] | AC50 [1] | AC50 [2]
25 | CCOC(=O)CSc1nnc(N)s1 | 1.14 | 16.4 µM [falling, single point] | 
13 | O=C(Nc1nnc(-c2ccccc2)o1)C1CCCCC1 | 2.08 | 6.51 µM [falling, single point] | 0.731 µM [falling, full curve]
6 | Cc1ccc(C2CC(=O)c3cnc(NC(=O)c4ccco4)nc3C2)cc1 (stereo unspecified) | 33.5 |  | 7.31 µM [rising, partial curve]
